{"source": "paper PMC7819943", "about": "“Rice protein-binding microarrays: a tool to detect cis-acting elements near promoter regions in rice”", "note": "Some of the results follow.", "data": [{"biological_target": "T1, OsSMF1 (Oryza sativa, UniProt Q6ZLB0 1-436)", "T1 sequence": "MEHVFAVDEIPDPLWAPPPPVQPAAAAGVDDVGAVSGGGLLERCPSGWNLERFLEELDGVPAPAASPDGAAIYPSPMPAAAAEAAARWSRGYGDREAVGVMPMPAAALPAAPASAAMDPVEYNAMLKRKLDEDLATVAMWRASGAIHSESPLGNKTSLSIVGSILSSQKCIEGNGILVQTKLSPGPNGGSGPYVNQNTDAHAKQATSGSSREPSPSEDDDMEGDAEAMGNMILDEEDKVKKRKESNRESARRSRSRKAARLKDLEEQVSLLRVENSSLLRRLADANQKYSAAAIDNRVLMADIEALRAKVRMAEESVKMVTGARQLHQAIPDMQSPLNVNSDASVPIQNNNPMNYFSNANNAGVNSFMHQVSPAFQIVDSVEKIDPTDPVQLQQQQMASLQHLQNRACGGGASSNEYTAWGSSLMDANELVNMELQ", "test": "protein-binding microarray (RPBM); PBS, 2% BSA, 51.3 ng/ul salmon testes DNA, 50 uM zinc acetate, 200 nM TF, 25 C, 1 h; high values mean tight binding", "conditions": "protein: recombinant; tags: N-terminal polyhistidine and DsRed monomer fusion (pET32a); chain copies: 2; label: CyDye5-dUTP incorporated in the synthesized complementary strand; 3' TTTTT single-stranded linker to array surface; dsDNA, one strand shown", "in_short": "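The binding signal is fluorescence intensity per array feature (arbitrary units). Readings came from an Axon 4000B scanner after a washed, 2% BSA-blocked, double-stranded custom Agilent array had been incubated for 1 h at 25 °C with 200 nM protein and 50 µM zinc acetate. The protein was a Ni–NTA-purified transcription factor fused N-terminally to polyhistidine and DsRed, expressed in E. coli BL21-CodonPlus.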", "values": [{"sequence": "ATATACGGAACCCACAGAATTCAACAACGAACTCCTACTTCGGAGTCACCTAGTGCAG", "binding signal": "4040 fluorescence intensity (a.u.)"}, {"sequence": "CCGAAGTCACAGAGTATGTACAGACGACGACGTGTGCATCCGGAGTCACCTAGTGCAG", "binding signal": "3840 fluorescence intensity (a.u.)"}, {"sequence": "TAATTACCAAATAAGAACAGGTAGACTATTAGTCAGCTACCGGAGTCACCTAGTGCAG", "binding signal": "4300 fluorescence intensity (a.u.)"}, {"sequence": "GTCACCAGTGACGCTACAACCAATCAATCTCGAGCTCTCCCGGAGTCACCTAGTGCAG", "binding signal": "6300 fluorescence intensity (a.u.)"}, {"sequence": "TAAGCATTAGGGGCAAATTGGTCATTTGACCCACAAGACCCGGAGTCACCTAGTGCAG", "binding signal": "4710 fluorescence intensity (a.u.)"}, {"sequence": "CACAAGGACTAGAACCACAAAATCCATGTCATTGGCCATGCGGAGTCACCTAGTGCAG", "binding signal": "4050 fluorescence intensity (a.u.)"}, {"sequence": "GACTAGCCTCCTCGGTGAATCATCTGTTGGCGTGGTCGGTCGGAGTCACCTAGTGCAG", "binding signal": "4260 fluorescence intensity (a.u.)"}, {"sequence": "AAGCTGCCTGCCTTTCGTTTTCCAGCTTCCAACGCGATCTCGGAGTCACCTAGTGCAG", "binding signal": "12600 fluorescence intensity (a.u.)"}, {"sequence": "CATGAAATTTCAAAAGCCTAAAACCTTTGGACATGTCATTCGGAGTCACCTAGTGCAG", "binding signal": "3340 fluorescence intensity (a.u.)"}, {"sequence": "TCATTCCCTCCGTACCATTATGTTTGGGTTCTGTTGTGCTCGGAGTCACCTAGTGCAG", "binding signal": "3650 fluorescence intensity (a.u.)"}, {"sequence": "ATTTATATTTTAAAATATACTTTTATATGACACTAATTTTCGGAGTCACCTAGTGCAG", "binding signal": "3170 fluorescence intensity (a.u.)"}, {"sequence": "GATATTTCCACTCCACTCCACGCAATCACCGTCCACCTGCCGGAGTCACCTAGTGCAG", "binding signal": "3420 fluorescence intensity (a.u.)"}, {"sequence": "GGTTGGGTGGCAGTTACTGCCAACCTTACCTGCTGCCACCCGGAGTCACCTAGTGCAG", "binding signal": "3300 fluorescence intensity (a.u.)"}, {"sequence": "GAGTGTATTGTCATGCATGCATGGTAGTATACTATGGTAGCGGAGTCACCTAGTGCAG", "binding signal": "4460 fluorescence intensity (a.u.)"}, {"sequence": "CTGATCTTCGGATCGGCACCGCGAAAAGGAAACTTGCCCCCGGAGTCACCTAGTGCAG", "binding signal": "3580 fluorescence intensity (a.u.)"}, {"sequence": "TATCGTGGCCACACCTTCGTGAGCTCTGCCTTTATTAGTTCGGAGTCACCTAGTGCAG", "binding signal": "3220 fluorescence intensity (a.u.)"}, {"sequence": "GACGCTCACGCTGACGCTGCTGCCTGGAATCACGTCTTGCCGGAGTCACCTAGTGCAG", "binding signal": "4770 fluorescence intensity (a.u.)"}, {"sequence": "CGGCACATCTCACAACGCAAAGCTTTAGCGCCGGAAACTGCGGAGTCACCTAGTGCAG", "binding signal": "4390 fluorescence intensity (a.u.)"}, {"sequence": "CCATCTCTATATGTGACTCATAATAGTGTAAAAGCTCATCCGGAGTCACCTAGTGCAG", "binding signal": "7430 fluorescence intensity (a.u.)"}, {"sequence": "CTCACATACCCTCTCACAATCTCACGTCACCTCCGCCGTCCGGAGTCACCTAGTGCAG", "binding signal": "5560 fluorescence intensity (a.u.)"}, {"sequence": "AAAACTGGCGGACGTGCACCAGATCCAATGACGCGACGCCCGGAGTCACCTAGTGCAG", "binding signal": "4180 fluorescence intensity (a.u.)"}, {"sequence": "CACCACAAGGAACCTAATCAGCTCACTTCGTCACGTGCATCGGAGTCACCTAGTGCAG", "binding signal": "3640 fluorescence intensity (a.u.)"}, {"sequence": "ATCTAAGAATTAAGAAAGACAGGTGTTTGATGTTTGATGACGGAGTCACCTAGTGCAG", "binding signal": "3210 fluorescence intensity (a.u.)"}, {"sequence": "GTGCCAATGGATGTGACATATGCATAGACATAAATAAGCACGGAGTCACCTAGTGCAG", "binding signal": "3220 fluorescence intensity (a.u.)"}, {"sequence": "AAGTAAATGTAGATAAGGCCGTGTAATAAAGGTTGCTAGTCGGAGTCACCTAGTGCAG", "binding signal": "56800 fluorescence intensity (a.u.)"}, {"sequence": "TTGTACAGGTGGGAATGAGGCACGAGAATCTGACCTGTTACGGAGTCACCTAGTGCAG", "binding signal": "3930 fluorescence intensity (a.u.)"}, {"sequence": "TTGGTTACAGCCCATTGACGGGCATCACATGCTGACTCGACGGAGTCACCTAGTGCAG", "binding signal": "6200 fluorescence intensity (a.u.)"}, {"sequence": "GTTAGACATGAACAGTGCTAAAACTGTACTTATTTTGGGACGGAGTCACCTAGTGCAG", "binding signal": "24300 fluorescence intensity (a.u.)"}, {"sequence": "GCAAGCATGAACTCTACATGCATGATGCAGCAAGAGAGCGCGGAGTCACCTAGTGCAG", "binding signal": "3860 fluorescence intensity (a.u.)"}, {"sequence": "TCTTCCTCTCCATATGGATATGACATCACACTCTTCCTGACGGAGTCACCTAGTGCAG", "binding signal": "8280 fluorescence intensity (a.u.)"}, {"sequence": "ATTCAAGAACTCGATCGAGGAGGGCCAAGAAAGGTGTGAGCGGAGTCACCTAGTGCAG", "binding signal": "29600 fluorescence intensity (a.u.)"}, {"sequence": "TCGCACCAAGAATTGTTCACCTACCTTCAAAGTTCCAACACGGAGTCACCTAGTGCAG", "binding signal": "63300 fluorescence intensity (a.u.)"}, {"sequence": "AGTTTAAAGATTGATTTAGATTTAGATTCCACGTAATCGCCGGAGTCACCTAGTGCAG", "binding signal": "7680 fluorescence intensity (a.u.)"}, {"sequence": "CCCACCTCCGCCACCGCCGCTGCCACCCCAGCACACCGCCCGGAGTCACCTAGTGCAG", "binding signal": "3800 fluorescence intensity (a.u.)"}, {"sequence": "CTGCACGAGGATGAGGCGGCCGAGGCGGGATTTGCCATCTCGGAGTCACCTAGTGCAG", "binding signal": "3340 fluorescence intensity (a.u.)"}, {"sequence": "AGCATGTGCATAAAACCTCTGTTGGGAGGATCCATCTTATCGGAGTCACCTAGTGCAG", "binding signal": "35300 fluorescence intensity (a.u.)"}, {"sequence": "CCATGCACTAAATTAAATGAGTAGGCATCGGCTCTGCTGACGGAGTCACCTAGTGCAG", "binding signal": "4070 fluorescence intensity (a.u.)"}, {"sequence": "TTCAATGCTTCCTCAACATATGCGTCAGCCTGGGCATATGCGGAGTCACCTAGTGCAG", "binding signal": "6850 fluorescence intensity (a.u.)"}, {"sequence": "AACTTTGCGGCCTCCTCTTGGACGATGGAGTCATGATGGGCGGAGTCACCTAGTGCAG", "binding signal": "28100 fluorescence intensity (a.u.)"}, {"sequence": "CCTTGAGAGCTGGAGCCTGGACCTGGAGGAGCGGTGCGTTCGGAGTCACCTAGTGCAG", "binding signal": "29100 fluorescence intensity (a.u.)"}, {"sequence": "GCGCATTCCGCCTACGTGGCCTCGCCTCCGCCTCCGGTTCCGGAGTCACCTAGTGCAG", "binding signal": "15500 fluorescence intensity (a.u.)"}, {"sequence": "TAGTCCAGCAAAACTAGCCCAAACTATCCTTCAACCCGTGCGGAGTCACCTAGTGCAG", "binding signal": "3190 fluorescence intensity (a.u.)"}]}]}
